The values below come from publication doi:10.1101/2025.01.09.632196.

The experiment concerns the target T1, DCP5-GFP (Arabidopsis thaliana) (UniProt Q9C658).
T1 sequence: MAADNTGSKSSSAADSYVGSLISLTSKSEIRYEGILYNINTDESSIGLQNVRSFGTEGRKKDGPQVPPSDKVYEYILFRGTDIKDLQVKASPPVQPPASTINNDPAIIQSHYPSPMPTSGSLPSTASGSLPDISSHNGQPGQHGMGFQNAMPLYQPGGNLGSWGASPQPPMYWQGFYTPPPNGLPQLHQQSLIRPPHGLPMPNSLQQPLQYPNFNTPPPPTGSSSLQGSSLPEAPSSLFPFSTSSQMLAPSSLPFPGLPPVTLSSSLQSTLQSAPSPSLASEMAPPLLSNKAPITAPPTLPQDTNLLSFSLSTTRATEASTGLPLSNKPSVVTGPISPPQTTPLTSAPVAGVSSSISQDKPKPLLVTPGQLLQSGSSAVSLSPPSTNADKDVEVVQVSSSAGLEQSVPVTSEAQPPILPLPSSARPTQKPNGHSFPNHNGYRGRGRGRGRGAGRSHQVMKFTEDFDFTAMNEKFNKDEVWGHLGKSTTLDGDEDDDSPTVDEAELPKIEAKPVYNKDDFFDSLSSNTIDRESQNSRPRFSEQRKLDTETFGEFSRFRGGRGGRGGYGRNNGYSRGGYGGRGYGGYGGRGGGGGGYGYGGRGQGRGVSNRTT
Kind of experiment: co-IP.

These are yes or no findings as the source states them, for the method shown. In cells and extracts the contact can be indirect. Some entries that bind do so weakly or less than the wild type. Where a sequence is shown, tags or fusion partners need not be part of it.

For HopN1-HA (from UniProt G3XDC5 1-350), the binding entry is “binds”.
